These are yes or no findings as the source states them, for the method shown.

The target of the test is Plasmodium falciparum vacuolar iron transporter homologue PfVIT (Plasmodium falciparum 3D7) (UniProt Q8I5I0). Kind of test: SEC; Superdex 200 10/300 GL; 50 mM Tris-HCl pH 8.0, 300 mM NaCl, 10 mM imidazole, 5% v/v glycerol, 1 mM DTT, 0.1% w/v FC-12; 4 °C; elution volume compared with monomeric membrane proteins GlpT (53 kDa, 11.6 ml) and MdtM (45 kDa, 12.0 ml) on the same column; both purified. A general note: In gel filtration, larger molecules generally elute earlier.

B1: Plasmodium falciparum vacuolar iron transporter homologue PfVIT (protein, UniProt Q8I5I0 1-273)
chain: MVSKKTIEARKAYYNEDVVLSKEAHDFYHNLDKHGENHNLDKDNLKTIIFGSLDGIITIFAIVSGCVGAKITPTQVIIIGIGNLFANAISMGFSEYTSSTAQRDFMLAEKKREEWEIENCPSEEKQEMIDIYMNKYKFDSEDARNLVEITFRNKNFFLEHMMSEELGLIVTNEDKNECLKKGIIMFLSFAVFGIIPLSAYVAYTVFFGYTDYTTSFLVVFISTLTTLFILGLFKSQFTNQKPITCALYMVLNGMIAGMVPFLLGVVLKNNISE
On to B1, for which the binding entry is given as “no binding”.

The values above are taken from paper PMC5309874.
